Assay [1] deals with IFT140 (mouse (endogenous in E11.5 embryos)) (UniProt E9PY46). As to the kind of experiment: affinity purification with mass spectrometry.
Assay [2] has as its target T1, IFT88 (mouse (endogenous in E11.5 embryos)) (UniProt Q61371).
T1 sequence: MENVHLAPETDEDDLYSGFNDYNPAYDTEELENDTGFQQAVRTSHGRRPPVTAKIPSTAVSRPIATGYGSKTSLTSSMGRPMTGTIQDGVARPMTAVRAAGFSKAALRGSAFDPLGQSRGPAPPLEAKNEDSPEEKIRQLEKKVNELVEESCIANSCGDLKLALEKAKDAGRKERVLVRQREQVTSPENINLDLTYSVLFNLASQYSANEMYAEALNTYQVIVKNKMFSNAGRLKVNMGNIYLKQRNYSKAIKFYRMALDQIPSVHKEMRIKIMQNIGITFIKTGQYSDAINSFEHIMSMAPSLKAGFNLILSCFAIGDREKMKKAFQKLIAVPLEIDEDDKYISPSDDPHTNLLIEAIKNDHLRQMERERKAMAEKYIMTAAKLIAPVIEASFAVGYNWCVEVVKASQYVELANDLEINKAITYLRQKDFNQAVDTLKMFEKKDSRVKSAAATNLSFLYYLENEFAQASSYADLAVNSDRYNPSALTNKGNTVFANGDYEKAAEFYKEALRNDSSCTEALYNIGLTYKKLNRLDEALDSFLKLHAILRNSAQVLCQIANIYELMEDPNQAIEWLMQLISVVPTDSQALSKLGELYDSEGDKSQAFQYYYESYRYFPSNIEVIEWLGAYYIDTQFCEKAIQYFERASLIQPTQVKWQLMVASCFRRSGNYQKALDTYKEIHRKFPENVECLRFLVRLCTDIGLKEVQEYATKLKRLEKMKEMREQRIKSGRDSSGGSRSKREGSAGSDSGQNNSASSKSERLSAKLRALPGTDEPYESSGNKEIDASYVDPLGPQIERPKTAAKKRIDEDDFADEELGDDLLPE
Nature of the assay: affinity purification with mass spectrometry.

Sequences of proteins named here, by UniProt entry; tags and fusion partners are left off.
UniProt E9PY46: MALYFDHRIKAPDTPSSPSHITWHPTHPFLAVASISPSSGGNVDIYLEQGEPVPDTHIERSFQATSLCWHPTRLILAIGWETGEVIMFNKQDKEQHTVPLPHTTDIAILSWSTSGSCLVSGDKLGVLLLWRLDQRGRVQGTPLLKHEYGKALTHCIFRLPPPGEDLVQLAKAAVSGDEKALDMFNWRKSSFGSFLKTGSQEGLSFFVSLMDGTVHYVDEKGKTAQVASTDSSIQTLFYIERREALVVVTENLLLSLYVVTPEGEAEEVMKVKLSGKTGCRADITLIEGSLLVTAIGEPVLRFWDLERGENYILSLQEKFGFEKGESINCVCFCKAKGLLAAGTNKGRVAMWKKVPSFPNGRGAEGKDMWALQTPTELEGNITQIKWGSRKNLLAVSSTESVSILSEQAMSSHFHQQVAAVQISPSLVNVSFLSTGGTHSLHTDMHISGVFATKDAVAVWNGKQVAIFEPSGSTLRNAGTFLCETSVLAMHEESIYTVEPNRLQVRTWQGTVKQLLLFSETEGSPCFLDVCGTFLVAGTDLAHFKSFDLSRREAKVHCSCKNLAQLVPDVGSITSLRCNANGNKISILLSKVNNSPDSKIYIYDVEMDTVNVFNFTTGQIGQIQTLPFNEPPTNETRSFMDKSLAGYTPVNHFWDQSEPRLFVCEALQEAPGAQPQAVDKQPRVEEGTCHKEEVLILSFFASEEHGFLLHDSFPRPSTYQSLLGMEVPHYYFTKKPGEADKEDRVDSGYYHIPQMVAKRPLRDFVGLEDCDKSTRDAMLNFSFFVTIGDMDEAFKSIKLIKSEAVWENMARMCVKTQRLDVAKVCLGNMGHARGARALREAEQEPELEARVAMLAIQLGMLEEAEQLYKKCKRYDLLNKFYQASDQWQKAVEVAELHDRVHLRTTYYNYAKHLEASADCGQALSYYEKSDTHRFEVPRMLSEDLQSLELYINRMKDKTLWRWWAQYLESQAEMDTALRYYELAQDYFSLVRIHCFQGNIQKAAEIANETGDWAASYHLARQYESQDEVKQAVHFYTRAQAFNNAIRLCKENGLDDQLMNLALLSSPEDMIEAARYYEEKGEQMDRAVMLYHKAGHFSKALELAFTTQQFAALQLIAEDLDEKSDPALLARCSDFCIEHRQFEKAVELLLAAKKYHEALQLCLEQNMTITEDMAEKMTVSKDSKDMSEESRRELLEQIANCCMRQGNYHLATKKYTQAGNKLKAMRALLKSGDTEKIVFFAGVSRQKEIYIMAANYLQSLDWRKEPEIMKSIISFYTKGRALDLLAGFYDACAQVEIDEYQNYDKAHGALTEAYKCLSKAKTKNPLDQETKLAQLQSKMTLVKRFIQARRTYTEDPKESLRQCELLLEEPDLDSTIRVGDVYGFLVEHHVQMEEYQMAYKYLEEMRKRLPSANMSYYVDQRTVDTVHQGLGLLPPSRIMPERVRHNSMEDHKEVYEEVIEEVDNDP

No constants are given. Whether binding was seen depends on the method and setting. In cells and extracts the contact can be indirect. These calls come from enrichment with a bait or labelling near it, and not all partners need be listed.

B1: IFT43 (protein, UniProt Q9DA69 1-206)
chain: MDDLLDLGEERRRSSATSGAKMGRRAHQESTQAENYLNSKNSSLTQTGEAPPPKPPRRQGGWADDSMKMAKLGKKVSEEMEDHRLRQQNLMGSDDDDIPVIPDLEDVQEEDFVLQVASPPSIQVNRVMTYRDLDNDLMKYSAFQTLDGEIDLKLLTKVLAPEHEVREDDVGWDWDHLYTEVSSELLTEWDLLRAEKEDPVGPSRYI
B1: the binding entry in assay [1] is “binds”.

B2: IFT144/WDR19 (protein, UniProt Q3UGF1 1-1341)
chain: MKRVFSLLEKSWLGAPIQFAWQKSSGNYLAVTGADYIVKIFDRHGQKRSEISLPGNCVTMDWDKDGDILAVIAEKSSCIYLWDANTNKTSQLDNGMRDQMSFLLWSKIGSFLAVGTIKGNLLIYNHQTSRKIPVLGKHTKKITCGCWNSENLLALGGEDKMITVSNQEGDTIRQTPVKSEPSDIKFSMSKTDERISSAENTISAVVGKKMLFLFHLNEPDNPVDLEFQQAYGNIVCYSWYGDGYIMIGFSRGTFLAISTHFPEVGQEIFKARDHKDNLTSVALSQTLNKAATCGDNCIKIHDLTELRDMYAIINLDDENKGLGTLSWTDDGQLLALSTQRGSLHVFLTKLPILGDACHTRIAYLTSLLEVTVANLIEGEPPITVSVDVEPTFVAVGLYHLAVGMNNRAWFYVLGENVVKKLKDVEYLGTVASICLHSDYAAALFEGKIQLHLIENEMLDAQEERETRLFPAVDDKCRILCHALTSDFLIYGTDTGIIHYFFIEDWQFVNDYRHPVGVKKLFPDPNGTRLVFIDEKSDGFVYCPVNDATYEIPDFSPTIKGVLWENWPMDKGVFIAYDDDKVYTYAFHKDTIQGSKVILAGSTKLPFSHKPLLLYNGELTCQTQSGKINSIYLSTHSFLGSMKDTEPTDLRQMLTQTLLLKRFSDAWDICKMLNDRTSWSELAKACLHHMEVEFAIRVSRTMGDVGTVMSLEQIKGIEDYNLLAGHLAMFTNDFNLAQDLYLASNCPVAALEMRRDLQHWDSALQLAKRLAPDQIPFISKEYAIQLEFTGDYVNALAHYEKGITGDNKEHDEVCLAGVAQMSIRMGDIRRGANQALKHPSRVLKRDCGAILENMKQFSEAAQLYEKGQYYDRAASVYIRCKNWAKVGELLPHVSSPKIHLQYAKAKEADGRYKEAVVAYENAKQWNSVIRIYLDHLNNPEKAVSIVRETQSLDGAKMVARFFLQLGDYGSAIQFLVLSKCNNEAFTLAQQHNKMEIYADIIGAEDTTNEDYQSIALYFEGEKRHFQAGKFFLLCGQYSRALKHFLKCPSSEDNVAIEMAIETVGQAKDELLTNQLIDHLMGESDGMPKDAKYLFRLYMALKQYREAARTAIIIAREEQSAGNYRNAHDVLFSMYAELKAQKIKIPSEMATNLMILHSYILVKIHVKSGDHMKGARMLIRVANNISKFPSHIVPILTSTVIECHRAGLKNSAFSFAAMLMRPEYRNKIDAKYKKKIEAMVRRPDTSETEEATTPCPFCQFLLPECELLCPGCKNNIPYCIATGRHMLKDDWTMCPHCGFPALYSEFKILLNSESTCPMCSERLNSSQLKKITDCSQYLRTEME
On to B2, for which the binding entry in assay [1] was “binds”.

B3: WDR35/IFT121 (protein, UniProt Q8BND3 1-1181)
chain: MFFYLSKKIAVPNNVKLKCISWNKDQGFIACGGEDGLLKVLRLETQTDDSKLRGLAAPSNLSMNQNLEGHSGAVQVVTWNEQYQKLTTSDQNGLIIVWMLYKGSWYEEMINNRNKSVVRSMSWNADGQKICIVYEDGAVIVGSVDGNRIWGKDLKGIQLCHVTWSADSKILLFGMANGEIHIYDNQGNFIMKMKLNCLVNVTGAISIAGIHWYHGTEGYVEPDCPCLAICFDNGRCQIMRHENDQNPVLIDTGMYVVGIQWNHIGSVLAVAGSQKVVTQDKDINIVQFYTPFGEHLGTLKVPGKQMCSLSWEGGGLKIALAVDSFIYFANIRPDYKWGYCSNTVVYAYTRPDRPEYCVVFWDTKNSEKYVKYVKSLISITTCGDFCILATKADENHPQEENEMETFGATFVLVLCNSIGTPLDPKYIDLVPLFVAMTKTHVIAASKEAFYTWQYRVAKKLTALEINQITRSRKEGRERIYHVDDVPSGSVDGVFDYSKAIQGTRDPICAITASDKTLIVGRESGVIQRYSFPNVALIQKYSLDCRACQLSLNCNSSRLAIIDIAGVLTFFDLDTRVTDSTGQQVVGELLKLERKDVWDMKWAKDNPDLFAMMEKTRMYVFRNLDPEEPIQTSGYICNFEDLEIKSVLLDEILKDPEHPSKDYIMNFEIRSLRDSRALIEKVGIEDASQFIEDNPHPRLWRLLAEAALQKLDLYTAQQAFVRCKDYQGIKFVKLLGNLQSESMKQAEVIAYFGRFEDAERMYQDMDRRDLAIGLRMKLGDWFRVLQLLKTGSGDADDSLLEQANNAIGEYFADRQKWQNAVQYYVKGRNQERLAECYYMLEDYEGLETLANSLPENHKLLPEIAQMFVRVGMCEQAVSAFLKCNQPKAAVDTCVHLNQWNKAVELAKSHSMKEIGSLLARYASHLLEKNKTLDAIELYRKASYFFDAAKLMYKIADEEAKKRTKPLRVKKLYVLSALLIEQYHEQMKNAQRGKVKGKNSEATSALAGLLEEEVLSTTSRFTDNAWRGAEAYHFFILAQRQLYEGYVDTALKTALHLRDYEDIIPSVEIYSLLALCACASRAFGTCSKAFIKLESLETLSAEQKQQYEDLALEIFTKHTPKDNRKSELNSLLEGGEGKLPTCIATGSPIIEYQFWVCKVCKHYVLAQEISNYNFCPLCHSSVE
For B3, the binding result in assay [1] is on record as “binds”.

B4: IFT22/RABL5 (protein, UniProt Q9DAI2 1-185)
chain: MLKAKILFVGPCESGKTVLANFLTESSDITEYNPTQGVRILEFENPHVTSNNKGTGCEFELWDCGGDSKFESCWPALMKDAHGVVIVFNADIPSHLKEIEMWYSCFVQQQFLQDSHCMLVAHHKPGSGGERGSLALSPPLNKLKLVHSNLEEDPEEVRVEFIKYLKSIINSMSESRDREEMLIIT
B4: the binding entry in assay [2] is on record as “binds”.

B5: IFT139/TTC21B/THM1 (protein, UniProt Q0HA38 1-1315)
chain: MDSQGLKTLINYYCQERYYHHVLLVASEGMKKYSSDPVFRFYHAYGTLMEGKAQEALREFEAIKNKQDVSLCSLMALMYVHKMSPNPDREAILELDTKMKEQRKEAGRKALYHAGLFLWHIGRHDKAREYIDRMSKMPHDSNEGPILKAWLDITRGKEPYAKKALRYFEEGLQDGNDIFALLGKVLCLEIRQNYSGALETVSQIIVNFPSFLPAFEKKMKLQLALQDWDQTVETAQRLLLQDNHNVEALRMLALYYLCREGDVEKAATKLENLGNALDVMEPQNAQLFYKITLAFSRTCGRNQLILQKVQSFLEKAFSLTPQQAEIATELGYQMILQGKVKEAWKWYRTAMTLNESNISAVTGLIRCQLIEGQLQDADQQLEFFSEFQQSMGKSAELMYLHAVLATKKNNRQDEVINLLNDVVNTHFSHLEDLPLGIQYFEKLNPDFLLEVVTEYLNLCPIQPAGPGQPLSPVLRRCSSVLETIIRSVPGLPQAVFLMAKVKYLSGDTEAAYNNLQHCLEHSPSYAEAHLLMAQVYLSQDKVKLCSQSLELCLSYNFNVREYPLYHLIKAQSQKKMGEVAEAIKTLHMAMNLPGMRRSRASSKSKHRTEVDASHRLSIFLELVEVHRLNGEQHEAAKVLQDAIHEFSGTCEELRVTIANADLALAQGDTDRALSMLRNVTTEQPYFIEAKEKMADIYLKHRKEKMLYITCYREIAERMPSPRSFLLLGDAYMNIQEPEEAIVAYEQALNQNPKDGTLARKIGKALVKTHNYSKAITYYEAALKSGQQNCLCYDLAELLLRLKLYEKAEKVLQHSLAHEPVSELSALMVDGRSQVLLAKVYSKMERPSDAIAALQQARELQARILKRVQMEQPDAVPSQKHFAAEICAEIAKHSAAQRDYEKAITFYREALVHCETDSKIMLELAQLYLAQEDLDASLRHCALLLQRDQDNEPATMLMADLMFRKQDYEQAVYHLQQLLDRKPDNFMTLSRLIDLLRRCGKLEDVPRFFLMAEKHNSRTKLEPGFQYCKGLHFWYTGEPNDALRHFNKARKDSDWGQNALYNMIEICLNPDNETIGGEVFENLNGDLGTSPEKQESVQLAVRTAEKLLKELKPQTVQGRLQLRIMENCCLMATKQKSSVEQALNTFTEIAASEKDHIPALLGMATAYMILKQTPKARNQLKRIAKMPWNPIEAEDLEKSWLLLADIYIQSAKYDMAEELLKRCLCHNRSCCKAYEYMGYIMEKEQAYTDAAFNYEMAWKHSNQTNPAVGYKLAFNYLKAKRYVDAIDVCHQVLEAHPTYPKIRKDILDKARASLRP
With B5, in assay [1], the binding entry is “binds”.

Values taken from doi:10.1101/2020.12.22.423978.
